Assay results as given in PMC12935370.
Results are given in words; binding and its absence hold for the method and conditions named. Binding seen in cells or lysates may run through a third protein. Some results given as binding are weak or reduced against the parent protein; the word gives no strength. Tags and fused reporters may be left off the sequences shown.

Protein sequences, listed by entry. Tags and fused reporters are not part of them.
UniProt P57780: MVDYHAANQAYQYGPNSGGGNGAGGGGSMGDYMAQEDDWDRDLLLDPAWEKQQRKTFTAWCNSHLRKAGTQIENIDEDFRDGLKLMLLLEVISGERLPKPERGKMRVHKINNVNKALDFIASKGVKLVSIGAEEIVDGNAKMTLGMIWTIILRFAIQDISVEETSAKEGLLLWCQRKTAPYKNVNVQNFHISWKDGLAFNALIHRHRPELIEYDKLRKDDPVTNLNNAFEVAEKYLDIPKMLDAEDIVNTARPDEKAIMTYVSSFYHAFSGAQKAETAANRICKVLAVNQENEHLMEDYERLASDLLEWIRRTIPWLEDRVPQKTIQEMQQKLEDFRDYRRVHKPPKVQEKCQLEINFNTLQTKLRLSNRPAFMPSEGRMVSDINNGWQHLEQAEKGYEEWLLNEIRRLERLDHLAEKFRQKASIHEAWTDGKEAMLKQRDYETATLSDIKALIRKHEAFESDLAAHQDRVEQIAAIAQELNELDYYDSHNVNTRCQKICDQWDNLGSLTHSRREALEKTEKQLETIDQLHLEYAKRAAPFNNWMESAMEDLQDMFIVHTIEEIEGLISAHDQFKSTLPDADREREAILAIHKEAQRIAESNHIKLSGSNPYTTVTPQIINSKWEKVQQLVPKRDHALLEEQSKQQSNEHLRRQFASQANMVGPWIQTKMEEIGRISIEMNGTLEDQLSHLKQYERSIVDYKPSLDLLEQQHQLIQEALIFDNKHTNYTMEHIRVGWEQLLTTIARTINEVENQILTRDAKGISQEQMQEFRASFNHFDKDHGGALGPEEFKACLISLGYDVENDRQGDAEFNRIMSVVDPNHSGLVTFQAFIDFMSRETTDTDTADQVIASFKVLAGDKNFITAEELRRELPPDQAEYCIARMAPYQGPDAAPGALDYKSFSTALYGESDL
UniProt Q9WVQ1: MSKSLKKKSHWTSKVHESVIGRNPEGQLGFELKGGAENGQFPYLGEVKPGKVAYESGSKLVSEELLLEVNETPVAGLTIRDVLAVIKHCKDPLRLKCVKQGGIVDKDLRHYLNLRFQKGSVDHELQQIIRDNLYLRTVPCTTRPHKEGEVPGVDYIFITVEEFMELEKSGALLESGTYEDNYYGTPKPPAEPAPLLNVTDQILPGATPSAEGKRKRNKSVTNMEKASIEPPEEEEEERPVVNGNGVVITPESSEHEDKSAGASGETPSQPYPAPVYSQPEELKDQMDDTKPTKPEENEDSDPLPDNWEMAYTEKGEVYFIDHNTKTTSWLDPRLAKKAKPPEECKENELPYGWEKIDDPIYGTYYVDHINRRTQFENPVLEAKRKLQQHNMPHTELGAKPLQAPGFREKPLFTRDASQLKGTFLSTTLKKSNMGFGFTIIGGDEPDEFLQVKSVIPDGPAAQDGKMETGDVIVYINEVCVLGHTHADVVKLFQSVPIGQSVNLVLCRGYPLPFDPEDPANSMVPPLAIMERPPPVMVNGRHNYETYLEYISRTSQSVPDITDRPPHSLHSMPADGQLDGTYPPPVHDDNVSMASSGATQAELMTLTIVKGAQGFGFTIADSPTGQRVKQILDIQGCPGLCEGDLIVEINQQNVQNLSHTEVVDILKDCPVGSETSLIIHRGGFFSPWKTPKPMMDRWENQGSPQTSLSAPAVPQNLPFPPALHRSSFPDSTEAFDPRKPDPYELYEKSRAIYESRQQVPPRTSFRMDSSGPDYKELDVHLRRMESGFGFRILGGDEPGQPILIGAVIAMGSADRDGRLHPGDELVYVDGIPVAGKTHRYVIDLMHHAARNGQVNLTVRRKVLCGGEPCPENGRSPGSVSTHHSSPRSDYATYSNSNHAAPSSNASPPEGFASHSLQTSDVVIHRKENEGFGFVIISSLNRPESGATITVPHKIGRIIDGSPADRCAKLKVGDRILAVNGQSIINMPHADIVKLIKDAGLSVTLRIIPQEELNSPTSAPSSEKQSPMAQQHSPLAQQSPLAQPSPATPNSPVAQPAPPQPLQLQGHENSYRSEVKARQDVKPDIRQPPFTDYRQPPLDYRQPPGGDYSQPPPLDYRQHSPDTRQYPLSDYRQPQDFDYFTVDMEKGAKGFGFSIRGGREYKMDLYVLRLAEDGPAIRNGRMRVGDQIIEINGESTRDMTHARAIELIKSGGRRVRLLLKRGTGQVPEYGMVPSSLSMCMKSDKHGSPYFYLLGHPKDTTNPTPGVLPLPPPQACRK

Experiments:
[1] = target: FLAG-α-actinin-4 (UniProt P57780); assay: co-IP; human embryonic kidney T antigen cells cotransfected with all three: GFP-Synpo, GFP-MAGI-2 and FLAG-α-actinin-4; Western blot
[2] = target: FLAG-MAGI-2 (membrane-associated guanylate kinase inverted 2) (UniProt Q9WVQ1); assay: co-IP; human embryonic kidney T antigen cells cotransfected with one GFP-tagged and one FLAG-tagged protein (whole proteins and truncated mutants of MAGI-2); Western blot
[3] = target: FLAG-α-actinin-4 (UniProt P57780); assay: as above

binding [1]: binds
binding [2]: binds
binding [3]: binds
B1: GFP-Synpo (synaptopodin) (protein, UniProt Q8CC35 1-929)
chain: MLGAHFPPPPLGASEGRAAPCTFQIPDGSYRCLALEAEESSSEDGLQGEVRLVDLEEEGTSQSRANHGTPPLSRAPAIIQPSSCHREARGGFQRSDRPSHDWDVVQARKVMTASGSSSPVPRVAQKPALGRSTSFTENDLKEAKARSQQIAAQLTTPPSSNSRGVQLFNRRRQRVNEFTLESRGQRSPKLNQEALQTGRPLSPIGHAPGPSVKPTSPSKPGSPKHPSPQSPSRGVAGHIMEGYSEEASLLRHLEKVASEEEEVPLVVYLKENAALLTANGLHLSQSRETQQSSPNPPDTEVPSPAADINQNPSSPNATLTTLASSSHHSQPTADINQNPPAAITPVPQNSSQAQCSPNGTLDSKPGTLCADDGQSPVPAEEVRSSILLIDKVSAPPSAASTFSREATPLSSSGPPAADLMSSSLLIDMQPSTLVAPAEQEVPGHVAVTTPTKVYSEVHLTLAKPASVVNRTARPFGIQSPGTSQIEQSPMMGRRQFGEKAWAPPASSMADRSPQPQRHIMSRSPMVERRLLGQRSPVLERRPLGNFTPPPTYAETLSTAPVASRVRSPPSYSTLYPSSDPKPSHLKGQVAPANKTGILEESMARRGSRKSMFTFVEKPKVTPNPDLLDLVQTADEKRRQRDHGEVGMEEEPFALGAEASNFQQEPIARDRASPAAAEEAVPEWASCLKSPRIQAKPKPKPNQNLSEASGKGAELYARRQSRMEKYVIESSGHAELARCPSPTMSLPSSWKYTTNAPGGFRVASLSPARTPPASLYHGYLPENGVLRPEPTKQQPYQMRPSLYALSPVKEPAKASSRATSSRTPSRTVSPRAASPAKPSSLDLVPNLPRAGLPPSPALPRPSRSSPGLYTAPVQDSLQPTAVSPTYSSDISPVSPSRAWSPRAKQAPRPSFSTRNAGIEAQVWKPSFCFK
